Results on one substance are retold here after patent US20090048117A1, “MODULATION OF IMMUNE SYSTEM FUNCTION BY MODULATION OF POLYPEPTIDE ARGININE METHYLTRANSFERASES” (President and Fellows of Harvard College, priority 2003, published 2009).

The chains behind the UniProt entries cited, without tags or fusion partners. Where a name states a change or a piece, a line headed by the entry shows the natural chain unless it says otherwise.
UniProt Q9JIF0: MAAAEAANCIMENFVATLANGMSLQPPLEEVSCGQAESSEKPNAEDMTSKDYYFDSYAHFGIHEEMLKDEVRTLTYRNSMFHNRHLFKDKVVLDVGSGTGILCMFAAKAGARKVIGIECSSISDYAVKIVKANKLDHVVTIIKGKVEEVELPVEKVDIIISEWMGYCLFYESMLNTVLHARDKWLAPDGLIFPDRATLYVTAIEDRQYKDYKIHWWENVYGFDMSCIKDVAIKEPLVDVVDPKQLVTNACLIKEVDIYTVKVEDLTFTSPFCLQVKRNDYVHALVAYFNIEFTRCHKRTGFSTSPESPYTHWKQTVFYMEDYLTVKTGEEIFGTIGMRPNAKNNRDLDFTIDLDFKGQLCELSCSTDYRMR

No constants are given. Whether binding was seen depends on the method and setting. Some results given as binding are weak or reduced against the parent protein; the word gives no strength.

For this experiment, the target named is T1, NFATc2 (form of the construct not stated).
T1 sequence: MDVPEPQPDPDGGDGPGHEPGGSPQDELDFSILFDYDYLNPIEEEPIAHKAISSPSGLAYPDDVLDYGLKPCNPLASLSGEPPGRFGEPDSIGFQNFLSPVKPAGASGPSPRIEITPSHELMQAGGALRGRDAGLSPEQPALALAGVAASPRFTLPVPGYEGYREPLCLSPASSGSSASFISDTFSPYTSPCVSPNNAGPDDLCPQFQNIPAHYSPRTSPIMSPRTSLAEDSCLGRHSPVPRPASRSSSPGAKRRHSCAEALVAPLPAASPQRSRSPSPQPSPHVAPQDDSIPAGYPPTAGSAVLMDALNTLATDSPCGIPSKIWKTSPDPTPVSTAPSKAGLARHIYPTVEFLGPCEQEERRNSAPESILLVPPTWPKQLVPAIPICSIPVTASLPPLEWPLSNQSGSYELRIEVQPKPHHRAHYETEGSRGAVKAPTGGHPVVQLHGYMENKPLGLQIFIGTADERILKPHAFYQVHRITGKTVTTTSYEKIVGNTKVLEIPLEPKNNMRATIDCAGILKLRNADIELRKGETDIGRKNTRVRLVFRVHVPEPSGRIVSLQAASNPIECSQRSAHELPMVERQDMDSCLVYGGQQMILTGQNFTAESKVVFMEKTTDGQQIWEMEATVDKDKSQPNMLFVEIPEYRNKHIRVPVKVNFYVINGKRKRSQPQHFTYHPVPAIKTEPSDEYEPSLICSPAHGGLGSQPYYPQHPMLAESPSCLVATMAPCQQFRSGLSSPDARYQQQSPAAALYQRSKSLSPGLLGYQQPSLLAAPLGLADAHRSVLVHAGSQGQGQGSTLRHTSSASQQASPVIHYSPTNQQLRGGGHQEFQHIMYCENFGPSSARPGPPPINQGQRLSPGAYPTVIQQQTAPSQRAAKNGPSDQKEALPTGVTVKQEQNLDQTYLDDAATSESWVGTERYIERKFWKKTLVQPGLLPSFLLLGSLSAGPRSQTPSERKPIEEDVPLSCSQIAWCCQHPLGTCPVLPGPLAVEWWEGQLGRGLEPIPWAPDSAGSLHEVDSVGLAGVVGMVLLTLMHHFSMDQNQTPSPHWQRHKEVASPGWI
As to the kind of experiment: association assay not described; in the presence of full-length NIP45 or ΔN-NIP45.

For the substance “PRMT1 (form of the construct not stated) (from UniProt Q9JIF0 1-371) (enzyme)”, the binding entry is given as “binds”.
